Data as given in US20220281997A1.
No constants are given. Whether binding was seen depends on the method and setting. Some entries that bind do so weakly or less than the wild type.

What was measured:
[1] = target: His-tag camel-derived nanobody AS718 VHH-His (camel-derived); assay: indirect ELISA, AS718 VHH-His coated, hybridoma supernatant
[2] = target: AS325 VHH (camel-derived); assay: indirect ELISA, VHH coated
[3] = target: AS673 VHH (camel-derived); assay: indirect ELISA, VHH coated
[4] = target: AS656 VHH (camel-derived); assay: indirect ELISA, VHH coated
[5] = target: AS519 VHH (camel-derived); assay: indirect ELISA, VHH coated
[6] = target: AS988 VHH (camel-derived); assay: indirect ELISA, VHH coated
[7] = target: AS587 VHH (camel-derived); assay: indirect ELISA, VHH coated
[8] = target: AS588 VHH (camel-derived); assay: indirect ELISA, VHH coated
[9] = target: AS325 VHH (camel-derived); assay: SPR, Biacore 8K; VHH-His captured on anti-His antibody chip
[10] = target: AS673 VHH (camel-derived); assay: as above
[11] = target: AS656 VHH (camel-derived); assay: as above
[12] = target: AS519 VHH (camel-derived); assay: as above
[13] = target: AS988 VHH (camel-derived); assay: as above
[14] = target: AS587 VHH (camel-derived); assay: as above
[15] = target: AS588 VHH (camel-derived); assay: as above

Measured: binding

B1: R166.C5 (antibody, V domains shown)
VH: QSVEESGGRLVTPGTPLTLTCTVSGFSLRNFAMSWVRQAPGKGLEWIGIIYSGGTRDYATWAKGRFTISKTSTTVDLKMTSPTTEDTATYFCARDRSPDYSAAFLLWGQGTLVTVSS
VL: IVMTQTPSSKSVPVGDTVTINCQASESVYSNNHLAWFQQKPGQPPKLLIYSASTLESGVPSRFKGSGSGTQFTLTISGVQCDDAATYYCAGYKSSDTDGTSFGGGTEVVVKG
binds: all assays above
